# According to PMC12614781, “The VelB IDD promotes selective heterodimer formation of velvet proteins for fungal development” (Life Science Alliance, 2025):
# Amino acid sequences for entries named in this document (tags omitted). A change or cut given only in a name is not applied to a line headed by its entry.
# UniProt C8VTS4: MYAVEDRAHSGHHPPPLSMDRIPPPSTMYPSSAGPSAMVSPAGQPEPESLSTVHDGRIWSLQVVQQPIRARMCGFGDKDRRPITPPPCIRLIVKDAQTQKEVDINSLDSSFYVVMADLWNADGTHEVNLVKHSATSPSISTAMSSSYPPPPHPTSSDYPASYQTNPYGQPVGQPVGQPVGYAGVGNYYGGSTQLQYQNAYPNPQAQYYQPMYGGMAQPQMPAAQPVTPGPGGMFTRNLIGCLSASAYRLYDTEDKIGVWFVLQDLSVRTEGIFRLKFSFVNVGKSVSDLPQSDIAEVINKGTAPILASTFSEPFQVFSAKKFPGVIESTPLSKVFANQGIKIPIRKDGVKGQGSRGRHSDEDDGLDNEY
# Results are given in words; binding and its absence hold for the method and conditions named. Binding seen in cells or lysates may run through a third protein. A result given as binding can be weak or reduced; the word gives no strength. Tags and fused reporters may be left off the sequences shown.
# B1: VeA-HA (A. nidulans VeA with HA tag) (protein, UniProt C8VTV4 1-573)
# chain: MATLAAPPPPLGESGNSNSVSRITREGKKITYKLNIMQQPKRARACGQGSKSHTDRRPVDPPPVIELNIFESDPHDDSNKTDITFVYNANFFLFATLEPERPIATGKLMTNQGSPVLTGVPVAGVAYLDKPNRAGYFIFPDLSVRNEGSYRFSFHLFEQIKDPKDATEGTQPMPSPVPGKLSSPQEFLEFRLEVISNPFIVYSAKKFPGLTTSTPISRMIAEQGCRVRIRRDVRMRRRGDKRTEDYDYDNERGYNNRRPDQYAGSDAYANAPERPRSTSISTNMDPYSYPSRRPSAVEYGQPIAQPYQRPMASTPAPSSTPIPAPIPMPGPVALPPSTPSPASAHAPAPPSVPLAAPPPLHTPSYQSHLSFGATQTQYPAPQLSHIPQQTTTPTHPYSPRSSISHSRNQSISEYEPSMGYPGSQTRLSAERPSYGQPSQTTSLPPLRHSLEPSVNSRSKTPSNMITSLPPIQSLSELPSTTSQPSSAIGSSPANEPGPRLWETNSMLSKRTYEESFGHDDRPLYNGMRPDSESYPGGMQRRPSYERSSLLDGPDQMAYKRANGRMVSKPATMR
# How the values were obtained:
# [1] = biological target: T1, VeA-HA (A. nidulans VeA with HA tag) (A. nidulans) (UniProt C8VTV4); assay: co-IP; GFP and HA (anti-HA agarose) pull-downs from vegetative mycelium of A. nidulans strains expressing veA:HA or vosA:HA and velB:gfp or velB^ΔIDD:gfp under native promoters, intact veA; Western with GFP and HA antibodies
# T1 sequence: B1 chain
# [2] = biological target: VelB^ΔIDD-GFP (A. nidulans VelB lacking the intrinsically disordered domain, fused to GFP) (A. nidulans) (UniProt C8VTS4); assay: as above
molecule,measurement,setting,value
"VelB^ΔIDD-GFP (A. nidulans VelB lacking the intrinsically disordered domain, fused to GFP) (from UniProt C8VTS4)",binding,[1],binds
B1,binding,[2],binds
